Reference: the supplement of paper PMC10849652
Some of the results follow.

Amino acid sequences for entries named in this document (tags omitted). A change or cut given only in a name is not applied to a line headed by its entry.
UniProt P54652, whole entry, looked up: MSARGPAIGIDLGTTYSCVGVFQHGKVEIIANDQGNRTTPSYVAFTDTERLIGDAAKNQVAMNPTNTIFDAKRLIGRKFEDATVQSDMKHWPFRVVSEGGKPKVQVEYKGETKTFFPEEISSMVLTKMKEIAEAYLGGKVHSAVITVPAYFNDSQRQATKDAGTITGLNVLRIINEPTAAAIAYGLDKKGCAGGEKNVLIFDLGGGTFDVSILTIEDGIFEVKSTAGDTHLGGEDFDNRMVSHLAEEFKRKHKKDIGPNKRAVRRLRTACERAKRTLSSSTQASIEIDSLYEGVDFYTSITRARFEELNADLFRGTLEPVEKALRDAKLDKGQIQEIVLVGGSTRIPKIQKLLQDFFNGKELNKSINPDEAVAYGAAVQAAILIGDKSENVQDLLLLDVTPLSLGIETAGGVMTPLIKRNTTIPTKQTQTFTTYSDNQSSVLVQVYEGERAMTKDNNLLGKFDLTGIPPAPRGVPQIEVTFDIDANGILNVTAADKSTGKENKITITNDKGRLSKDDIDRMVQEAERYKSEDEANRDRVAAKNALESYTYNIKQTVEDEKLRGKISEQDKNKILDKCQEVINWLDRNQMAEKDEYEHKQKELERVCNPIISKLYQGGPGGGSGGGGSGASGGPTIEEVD
UniProt Q9Y241: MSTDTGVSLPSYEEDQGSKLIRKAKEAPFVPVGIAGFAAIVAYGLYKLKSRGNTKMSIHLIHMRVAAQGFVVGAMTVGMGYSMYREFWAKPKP
UniProt P11021: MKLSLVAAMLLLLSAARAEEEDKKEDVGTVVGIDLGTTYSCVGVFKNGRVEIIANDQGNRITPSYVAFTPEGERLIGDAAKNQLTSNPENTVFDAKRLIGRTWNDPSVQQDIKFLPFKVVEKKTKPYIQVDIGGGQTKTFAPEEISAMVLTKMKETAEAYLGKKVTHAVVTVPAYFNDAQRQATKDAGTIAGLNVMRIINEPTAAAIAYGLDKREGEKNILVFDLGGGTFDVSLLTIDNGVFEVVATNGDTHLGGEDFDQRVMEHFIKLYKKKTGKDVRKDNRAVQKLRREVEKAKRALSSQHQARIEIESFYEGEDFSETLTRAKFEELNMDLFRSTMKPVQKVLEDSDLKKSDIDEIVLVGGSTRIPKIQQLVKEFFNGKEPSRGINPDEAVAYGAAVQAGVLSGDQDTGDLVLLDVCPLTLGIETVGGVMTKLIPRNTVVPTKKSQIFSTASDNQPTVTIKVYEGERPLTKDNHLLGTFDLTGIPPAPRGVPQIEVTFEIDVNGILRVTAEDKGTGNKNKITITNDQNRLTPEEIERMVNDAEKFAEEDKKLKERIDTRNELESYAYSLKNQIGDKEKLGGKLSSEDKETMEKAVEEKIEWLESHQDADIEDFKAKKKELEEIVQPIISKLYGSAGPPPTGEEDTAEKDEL
UniProt Q8TB92: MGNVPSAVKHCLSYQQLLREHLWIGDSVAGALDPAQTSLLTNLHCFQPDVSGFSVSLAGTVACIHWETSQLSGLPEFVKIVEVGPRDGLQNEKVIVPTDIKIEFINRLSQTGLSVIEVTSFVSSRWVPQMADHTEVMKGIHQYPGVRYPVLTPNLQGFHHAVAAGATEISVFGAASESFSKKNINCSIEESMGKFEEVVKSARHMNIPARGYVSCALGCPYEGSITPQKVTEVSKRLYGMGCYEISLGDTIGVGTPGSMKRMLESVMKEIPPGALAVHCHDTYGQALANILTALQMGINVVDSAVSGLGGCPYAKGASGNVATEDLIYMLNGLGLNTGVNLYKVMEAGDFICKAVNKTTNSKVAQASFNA
UniProt Q9BUP3: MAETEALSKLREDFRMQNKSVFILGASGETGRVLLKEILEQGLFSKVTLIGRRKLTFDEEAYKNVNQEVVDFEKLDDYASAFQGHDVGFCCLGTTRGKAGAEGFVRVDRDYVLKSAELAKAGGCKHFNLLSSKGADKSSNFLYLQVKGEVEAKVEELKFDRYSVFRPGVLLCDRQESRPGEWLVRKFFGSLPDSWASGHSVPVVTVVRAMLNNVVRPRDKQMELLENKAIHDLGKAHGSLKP
UniProt Q9Y547: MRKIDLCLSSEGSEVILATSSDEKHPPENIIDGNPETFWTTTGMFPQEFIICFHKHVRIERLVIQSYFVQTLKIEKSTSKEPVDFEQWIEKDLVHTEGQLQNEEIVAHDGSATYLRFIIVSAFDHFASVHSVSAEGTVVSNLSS
UniProt Q92506: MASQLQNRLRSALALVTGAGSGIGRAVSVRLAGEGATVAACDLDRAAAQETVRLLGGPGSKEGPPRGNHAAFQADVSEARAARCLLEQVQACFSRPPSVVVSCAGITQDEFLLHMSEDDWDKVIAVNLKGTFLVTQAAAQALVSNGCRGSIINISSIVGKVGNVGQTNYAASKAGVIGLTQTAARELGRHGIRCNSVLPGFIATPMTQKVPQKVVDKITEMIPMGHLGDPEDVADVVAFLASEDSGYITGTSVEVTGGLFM
UniProt P13598: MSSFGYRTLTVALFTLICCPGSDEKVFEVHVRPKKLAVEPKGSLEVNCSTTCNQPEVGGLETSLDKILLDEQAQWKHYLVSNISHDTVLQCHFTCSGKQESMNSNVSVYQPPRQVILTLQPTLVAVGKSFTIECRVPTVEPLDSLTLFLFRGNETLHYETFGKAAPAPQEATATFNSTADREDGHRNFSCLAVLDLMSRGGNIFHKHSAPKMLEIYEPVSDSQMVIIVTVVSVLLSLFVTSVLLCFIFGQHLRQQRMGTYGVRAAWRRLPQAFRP
UniProt P14735, whole entry, looked up: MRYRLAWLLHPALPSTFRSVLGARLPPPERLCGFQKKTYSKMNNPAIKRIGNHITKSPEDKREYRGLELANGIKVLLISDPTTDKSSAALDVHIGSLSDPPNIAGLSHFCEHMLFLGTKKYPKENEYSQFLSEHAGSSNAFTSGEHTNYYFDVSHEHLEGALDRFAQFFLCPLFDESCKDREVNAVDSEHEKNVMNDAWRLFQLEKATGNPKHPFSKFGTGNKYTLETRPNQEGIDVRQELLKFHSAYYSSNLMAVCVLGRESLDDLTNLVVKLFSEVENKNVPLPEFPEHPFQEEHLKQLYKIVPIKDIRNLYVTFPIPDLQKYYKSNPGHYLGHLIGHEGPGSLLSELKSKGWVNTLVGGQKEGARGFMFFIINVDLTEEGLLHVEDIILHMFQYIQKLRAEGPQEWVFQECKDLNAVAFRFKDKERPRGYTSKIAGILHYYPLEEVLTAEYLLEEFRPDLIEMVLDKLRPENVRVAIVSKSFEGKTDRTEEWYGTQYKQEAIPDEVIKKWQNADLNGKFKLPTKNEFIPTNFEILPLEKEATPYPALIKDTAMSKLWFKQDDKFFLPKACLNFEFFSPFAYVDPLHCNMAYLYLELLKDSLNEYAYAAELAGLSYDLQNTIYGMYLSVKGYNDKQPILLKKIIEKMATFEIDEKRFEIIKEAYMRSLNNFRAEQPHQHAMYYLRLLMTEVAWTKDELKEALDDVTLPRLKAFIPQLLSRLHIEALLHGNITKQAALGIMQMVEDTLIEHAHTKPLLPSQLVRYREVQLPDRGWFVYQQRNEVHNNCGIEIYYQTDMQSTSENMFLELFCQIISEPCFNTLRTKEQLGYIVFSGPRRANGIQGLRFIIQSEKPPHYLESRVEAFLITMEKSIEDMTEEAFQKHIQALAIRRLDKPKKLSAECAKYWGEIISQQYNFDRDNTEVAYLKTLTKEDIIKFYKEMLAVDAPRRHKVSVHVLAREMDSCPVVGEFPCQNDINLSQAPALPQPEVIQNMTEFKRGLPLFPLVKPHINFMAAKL
UniProt Q9BUJ2: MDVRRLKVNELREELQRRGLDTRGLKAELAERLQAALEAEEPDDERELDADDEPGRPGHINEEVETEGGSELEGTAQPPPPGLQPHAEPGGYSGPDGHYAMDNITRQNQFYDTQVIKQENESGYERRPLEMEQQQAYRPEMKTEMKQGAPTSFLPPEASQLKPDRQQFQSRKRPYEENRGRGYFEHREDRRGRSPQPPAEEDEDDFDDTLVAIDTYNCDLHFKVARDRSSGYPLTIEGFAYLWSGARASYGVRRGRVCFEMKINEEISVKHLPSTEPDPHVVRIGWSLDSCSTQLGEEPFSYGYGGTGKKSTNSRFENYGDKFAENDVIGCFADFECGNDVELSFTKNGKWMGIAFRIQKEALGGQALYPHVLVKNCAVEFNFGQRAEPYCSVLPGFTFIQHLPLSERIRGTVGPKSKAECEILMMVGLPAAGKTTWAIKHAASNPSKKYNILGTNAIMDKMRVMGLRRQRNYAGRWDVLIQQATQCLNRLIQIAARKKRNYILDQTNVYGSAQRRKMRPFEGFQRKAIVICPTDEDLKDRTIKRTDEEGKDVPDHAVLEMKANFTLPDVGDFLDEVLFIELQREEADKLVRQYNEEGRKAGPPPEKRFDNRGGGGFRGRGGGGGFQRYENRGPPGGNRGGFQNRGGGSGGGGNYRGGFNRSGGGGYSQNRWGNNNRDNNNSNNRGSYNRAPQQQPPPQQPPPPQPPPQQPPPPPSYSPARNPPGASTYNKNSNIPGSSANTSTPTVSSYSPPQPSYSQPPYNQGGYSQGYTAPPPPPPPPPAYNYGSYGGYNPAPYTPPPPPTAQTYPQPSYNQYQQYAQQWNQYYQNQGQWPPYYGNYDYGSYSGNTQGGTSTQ
UniProt P14866: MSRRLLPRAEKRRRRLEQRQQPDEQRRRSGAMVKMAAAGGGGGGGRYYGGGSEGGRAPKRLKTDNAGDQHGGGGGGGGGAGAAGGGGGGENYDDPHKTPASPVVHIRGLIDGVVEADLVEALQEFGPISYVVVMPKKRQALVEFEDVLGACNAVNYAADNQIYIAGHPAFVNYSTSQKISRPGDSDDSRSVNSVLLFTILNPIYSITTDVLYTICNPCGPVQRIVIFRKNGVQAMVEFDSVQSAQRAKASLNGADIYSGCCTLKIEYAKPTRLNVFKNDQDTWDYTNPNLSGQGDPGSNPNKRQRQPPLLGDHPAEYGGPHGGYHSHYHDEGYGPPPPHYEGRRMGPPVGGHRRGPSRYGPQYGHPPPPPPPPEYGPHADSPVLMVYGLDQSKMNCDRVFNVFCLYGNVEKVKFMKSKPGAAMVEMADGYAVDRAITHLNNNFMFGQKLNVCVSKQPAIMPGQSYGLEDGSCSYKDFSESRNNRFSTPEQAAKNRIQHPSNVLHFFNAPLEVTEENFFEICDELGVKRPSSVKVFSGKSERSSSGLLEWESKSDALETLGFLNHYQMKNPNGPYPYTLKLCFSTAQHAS
UniProt Q9P0W2: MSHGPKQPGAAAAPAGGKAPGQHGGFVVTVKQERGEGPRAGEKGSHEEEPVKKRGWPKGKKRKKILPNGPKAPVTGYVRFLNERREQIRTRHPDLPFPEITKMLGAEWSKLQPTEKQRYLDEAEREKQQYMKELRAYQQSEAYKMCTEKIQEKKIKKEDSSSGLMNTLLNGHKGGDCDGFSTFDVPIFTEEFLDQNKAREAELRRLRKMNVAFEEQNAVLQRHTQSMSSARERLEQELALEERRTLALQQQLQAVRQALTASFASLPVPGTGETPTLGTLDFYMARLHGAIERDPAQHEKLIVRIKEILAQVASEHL
UniProt Q9NSC5: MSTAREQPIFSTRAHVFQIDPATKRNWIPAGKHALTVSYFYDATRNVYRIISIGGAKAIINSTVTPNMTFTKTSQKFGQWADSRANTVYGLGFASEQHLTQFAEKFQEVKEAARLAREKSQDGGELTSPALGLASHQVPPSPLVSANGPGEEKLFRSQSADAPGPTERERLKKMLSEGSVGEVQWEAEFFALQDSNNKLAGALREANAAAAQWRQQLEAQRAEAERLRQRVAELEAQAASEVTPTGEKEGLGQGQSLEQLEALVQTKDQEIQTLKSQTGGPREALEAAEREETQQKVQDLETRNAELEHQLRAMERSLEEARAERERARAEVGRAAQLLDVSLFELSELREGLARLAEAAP
UniProt Q8IWL3: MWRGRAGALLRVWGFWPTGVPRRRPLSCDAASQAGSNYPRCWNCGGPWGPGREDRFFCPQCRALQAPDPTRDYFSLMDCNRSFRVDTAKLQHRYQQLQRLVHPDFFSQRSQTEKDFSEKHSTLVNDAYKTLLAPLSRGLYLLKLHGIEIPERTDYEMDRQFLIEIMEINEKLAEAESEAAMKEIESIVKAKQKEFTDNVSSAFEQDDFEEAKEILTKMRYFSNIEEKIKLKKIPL
UniProt O60725, whole entry, looked up: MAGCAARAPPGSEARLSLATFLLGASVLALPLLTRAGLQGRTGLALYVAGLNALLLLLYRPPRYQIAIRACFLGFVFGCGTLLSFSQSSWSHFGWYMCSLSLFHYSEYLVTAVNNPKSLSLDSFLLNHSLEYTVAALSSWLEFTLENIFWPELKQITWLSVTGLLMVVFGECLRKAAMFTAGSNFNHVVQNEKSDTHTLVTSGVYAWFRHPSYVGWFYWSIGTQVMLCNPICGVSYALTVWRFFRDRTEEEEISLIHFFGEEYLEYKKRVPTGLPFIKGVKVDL
UniProt Q6DN03, whole entry, looked up: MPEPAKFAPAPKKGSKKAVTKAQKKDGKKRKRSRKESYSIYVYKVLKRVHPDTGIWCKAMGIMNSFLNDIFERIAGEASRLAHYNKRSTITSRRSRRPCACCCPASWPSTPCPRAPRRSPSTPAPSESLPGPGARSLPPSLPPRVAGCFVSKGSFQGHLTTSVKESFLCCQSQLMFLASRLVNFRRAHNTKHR

Columns and labels:
Assay in all cases: log2 fold change, soluble protein after heating vs DMSO (PISA); higher = thermal stabilisation; K562 cells, 10 uM, 30 min; active = over 0.2 and 3.5 SD of the protein, either way, in both replicates (recomputed)
[1] = compound: C1=CC=C(C=C1)[C@H](COC2=CC3=C(C=C2)NC(=O)N3)NC(=O)C4=CC=CN(C4=O)CC5=CC(=C(C=C5)F)F
In short: (§1)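 Quantification of soluble protein used TMTpro 16plex LC-MS/MS, with channel sums equalised. Samples were the supernatant after 21,000xg for 90 min of pooled aliquots from K562 cells (2×10^6 cells/mL) treated with 10 μM compound for 30 min, heated for 3 min over 48°C-58°C, and extracted in PBS with 0.5% NP-40 at 4°C. Values, from duplicates, describe thermal stability against control samples on a log2 fold-change scale.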

[2] = compound: CC1=C(SC2=C1C(=N[C@H](C3=NN=C(N32)C)CC(=O)N)C4=CC=C(C=C4)Cl)C
In short: as §1

[3] = compound: CC1=C2C(=CC=C1)N=C(N(C2=O)C3=CC=CC=C3C)CN4C=NC5=C(N=CN=C54)N
In short: as §1

[4] = compound: Cc1sc2c(c1C)C(c1ccc(Cl)cc1)=N[C@@H](CC(=O)OC(C)(C)C)c1nnc(C)n1-2
In short: as §1

[5] = compound: c1ccc([C@@H]2C[C@H]2NC2CCNCC2)cc1
In short: as §1

Target | log2 fold change [1] | log2 fold change [2] | log2 fold change [3] | log2 fold change [4] | log2 fold change [5]
HNRNPH2 (UniProt P55795) | inactive: -0.096 | inactive: -0.037 | inactive: 0.097 | inactive: -0.035 | inactive: -0.003
HNRNPH3 (UniProt P31942) | inactive: 0.057 | inactive: -0.329 | inactive: -0.169 | inactive: -0.08 | inactive: 0.033
HSPA2 (UniProt P54652) | inactive: 0.003 |  |  |  | 
HGH1 (UniProt Q9BTY7) | inactive: -0.042 | inactive: -0.021 | inactive: 0.07 | inactive: 0.026 | inactive: -0.162
HIGD1A isoform 2 (UniProt Q9Y241) | inactive: 0.083 |  |  |  | 
HS2ST1 (UniProt Q7LGA3) | inactive: 0.06 | inactive: 0.015 | inactive: -0.019 | inactive: 0.036 | inactive: 0.045
HNRNPH1 (UniProt P31943) | inactive: -0.032 | inactive: -0.007 | inactive: 0.045 | inactive: -0.015 | inactive: -0.017
HIST2H3A (UniProt Q71DI3) | inactive: 0.068 | inactive: -0.153 | inactive: -0.266 | inactive: -0.221 | inactive: 0.192
HRC (UniProt P23327) | inactive: 0.026 | inactive: -0.042 | inactive: 0.055 | inactive: 0.014 | inactive: 0.033
HSPA5 (UniProt P11021) | inactive: -0.037 | inactive: -0.004 | inactive: -0.027 | inactive: -0.003 | inactive: 0.013
HSD17B7 (UniProt P56937) | inactive: -0.037 | inactive: 0.126 | inactive: 0.027 | inactive: -0.039 | inactive: 0.001
HYPK (UniProt Q9NX55) | inactive: -0.068 | inactive: 0.117 | inactive: -0.01 | inactive: -0.046 | inactive: -0.023
HNRNPC isoform 2 (UniProt P07910) | inactive: 0.102 | inactive: -0.441 | inactive: -0.171 | inactive: 0.07 | inactive: 0.139
HMGCLL1 (UniProt Q8TB92) | inactive: 0.043 | inactive: -0.045 | inactive: 0.017 | inactive: 0.01 | inactive: -0.019
HSPA8 (UniProt E9PK54) | inactive: 0.004 | inactive: -0.108 | inactive: 0.037 | inactive: 0.099 | inactive: -0.001
HTATIP2 isoform 3 (UniProt Q9BUP3) | inactive: 0.063 | inactive: 0.031 | inactive: 0.059 | inactive: 0.028 | inactive: -0.03
HSPB11 (UniProt Q9Y547) | inactive: -0.002 | inactive: 0.139 | inactive: 0.044 | inactive: 0.015 | inactive: 0.035
HRAS (UniProt P01112) | inactive: 0.015 | inactive: 0.116 | inactive: -0.03 | inactive: 0.016 | inactive: 0.138
HIRIP3 (UniProt Q9BW71) | inactive: 0.004 | inactive: -0.01 | inactive: 0.061 | inactive: -0.038 | inactive: -0.013
HSD17B8 (UniProt Q92506) | inactive: -0.002 | inactive: 0.022 | inactive: -0.025 | inactive: 0.027 | inactive: 0.068
HSPH1 (UniProt Q92598) | inactive: -0.009 | inactive: 0 | inactive: 0.045 | inactive: -0.009 | inactive: 0.013

Target | log2 fold change [1] | log2 fold change [2] | log2 fold change [3] | log2 fold change [4] | log2 fold change [5]
ICAM2 (UniProt P13598) | inactive: 0.024 | inactive: 0.016 | inactive: -0.018 | inactive: 0.019 | inactive: 0
IDE (UniProt P14735) | inactive: -0.069 | inactive: 0.034 | inactive: 0.068 | inactive: -0.006 | inactive: -0.044
HSPA6 (UniProt P17066) | inactive: 0.015 | inactive: -0.017 | inactive: 0.003 | inactive: -0.032 | inactive: 0.022
HSDL1 (UniProt Q3SXM5) | inactive: 0.021 | inactive: 0.112 | inactive: 0.064 | inactive: -0.027 | inactive: -0.022
HMMR isoform 3 (UniProt O75330) | inactive: -0.063 | inactive: 0.04 | inactive: 0.056 | inactive: 0.002 | inactive: -0.047
HSDL2 (UniProt Q6YN16) | inactive: -0.081 | inactive: 0.077 | inactive: 0.048 | inactive: -0.041 | inactive: -0.004
HMG20A (UniProt Q9NP66) | inactive: 0.07 | inactive: -0.085 | inactive: 0.048 | inactive: 0.048 | active: 0.536
IARS (UniProt P41252) | inactive: -0.008 | inactive: -0.177 | inactive: -0.034 | inactive: 0.216 | inactive: 0.009
HMGB2 (UniProt P26583) | inactive: 0.035 | inactive: 0.029 | inactive: -0.015 | inactive: -0.02 | inactive: 0.006
HNRNPUL1 (UniProt Q9BUJ2) | inactive: -0.021 | inactive: -0.028 | inactive: 0.024 | inactive: 0.07 | inactive: 0.058
HMBS (UniProt P08397) | inactive: 0.003 | inactive: 0.005 | inactive: -0.026 | inactive: -0.017 | inactive: 0.012
HMGN2 (UniProt P05204) | inactive: -0.099 | inactive: -0.056 | inactive: -0.033 | inactive: 0.021 | inactive: 0.07
HUS1 (UniProt O60921) | inactive: 0.002 | inactive: 0.052 | inactive: 0.062 | inactive: -0.021 | inactive: -0.009
HNRNPAB isoform 3 (UniProt Q99729) | inactive: 0.062 | inactive: -0.092 | inactive: -0.073 | inactive: 0.142 | inactive: 0.039
IARS2 (UniProt Q9NSE4) | inactive: 0.019 | inactive: -0.017 | inactive: -0.002 | inactive: -0.002 | inactive: 0.03
HSD17B11 (UniProt Q8NBQ5) | inactive: 0.028 | inactive: 0.038 | inactive: 0 | inactive: -0.038 | inactive: 0
HPCAL1 (UniProt P37235) | inactive: 0.007 | inactive: -0.011 | inactive: 0.047 | inactive: -0.011 | inactive: 0.032
HSP90AB1 (UniProt P08238) | inactive: -0.031 | inactive: 0.033 | inactive: 0.025 | inactive: -0.017 | inactive: -0.043
HUWE1 isoform 2 (UniProt Q7Z6Z7) |  | inactive: 0.114 |  |  | inactive: 0.226
HNRNPU isoform 2 (UniProt Q00839) |  |  |  | inactive: 0.154 | 
HSP90AA2P (UniProt Q14568) |  |  |  | inactive: 0.006 | 

Target | log2 fold change [1] | log2 fold change [2] | log2 fold change [3] | log2 fold change [4] | log2 fold change [5]
HNRNPL (UniProt P14866) | inactive: -0.124 | inactive: -0.22 |  | inactive: -0.039 | inactive: 0.049
HTD2 (UniProt P86397) | inactive: -0.017 | inactive: -0.101 | inactive: -0.06 |  | inactive: 0.373
HNRNPR (UniProt O43390) | inactive: 0.148 | inactive: -0.131 |  |  | inactive: 0.099
HMG20B (UniProt Q9P0W2) | inactive: -0.02 | inactive: 0.033 |  |  | inactive: 0.082
ICOSLG isoform 2 (UniProt O75144) | inactive: -0.078 |  | inactive: 0.382 |  | 
HPS4 isoform 4 (UniProt Q9NQG7) |  |  |  | inactive: -0.247 | 
IBTK (UniProt Q9P2D0) | inactive: -0.159 | inactive: -0.105 |  | inactive: 0.182 | inactive: -0.043
HOMER3 (UniProt Q9NSC5) |  | inactive: 0.018 |  |  | inactive: -0.03
HIF1AN (UniProt Q9NWT6) | inactive: -0.043 |  | inactive: 0.08 | inactive: 0.104 | 
HSCB (UniProt Q8IWL3) |  | inactive: -0.034 | inactive: -0.003 | inactive: -0.083 | inactive: 0.012
HSPBAP1 (UniProt Q96EW2) |  | inactive: -0.027 | inactive: -0.082 |  | inactive: 0.161
HOMER2 (UniProt Q9NSB8) |  | inactive: -0.028 | inactive: -0.178 | inactive: -0.086 | inactive: -0.08
ICMT (UniProt O60725) | inactive: 0.047 |  | inactive: 0.115 | inactive: 0.07 | 
HNRNPUL1 (UniProt M0R247) |  | inactive: 0.079 |  | inactive: 0.204 | inactive: 0.122
HIST2H2BC (UniProt Q6DN03) | inactive: 0.136 |  | inactive: -0.298 | inactive: -0.198 | 
HUWE1, A0A087X1S3 | inactive: -0.145 | inactive: -0.008 |  | inactive: 0.002 | inactive: 0.121
HLA-E (UniProt P13747) | inactive: 0.1 | inactive: 0.052 |  | inactive: -0.229 | inactive: 0.007
HSP90AB3P (UniProt Q58FF7) | inactive: -0.059 | inactive: 0.095 |  |  | inactive: 0.034
HGFAC (UniProt Q04756) | inactive: -0.12 |  |  | inactive: 0.091 | 
